PubChem BioAssay AID1259425, University of Nebraska Medical Center – 2018
Aim: 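Find knockdowns that reproduce the gene expression pattern seen when KSR1 is lost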 (primary screen). Cells: HCT116 human colon cancer cells. Reagents: siRNA pool against human genes, 50 nM siRNA. Detection: 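After 50 nM siRNA pool, branched-DNA assay measures six marker transcripts per well, minus blank, normalised to the geometric mean of two housekeeping transcripts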. Direction: BNIP3L mRNA: higher = more BNIP3L transcript after knockdown; NDRG1 mRNA: higher = more NDRG1 transcript after knockdown; BNIP3 mRNA: higher = more BNIP3 transcript after knockdown.
Shown is a random part of about 14,000 reagents. Not all columns of the deposit are shown. The record does not give: the time to read-out.

no.	Gene	PubChem SID	BNIP3L mRNA, set 1	NDRG1 mRNA, set 1	BNIP3 mRNA, set 1
1	GPX1 (glutathione peroxidase 1)	SID363991899	0.0957	0.145	0.385
2	STT3A (STT3 oligosaccharyltransferase complex catalytic subunit A)	SID364004741	0.0599	0.0894	0.324
3	NAGLU (N-acetyl-alpha-glucosaminidase)	SID363991596	0.0831	0.139	0.222
4	PLSCR1 (phospholipid scramblase 1)	SID364002013	0.0937	0.33	0.253
5	TCHH (trichohyalin)	SID363997829	0.117	0.0985	0.249
6	IFITM1 (interferon induced transmembrane protein 1)	SID363994716	0.151	0.466	0.325
7	SPATA31H1 (SPATA31 subfamily H member 1)	SID364003860	0.371	0.454	0.55
8	OTUD5 (OTU deubiquitinase 5)	SID364000388	0.117	0.46	0.472
9	ARHGEF17 (Rho guanine nucleotide exchange factor 17)	SID363999105	0.108	0.273	0.225
10	TMEM59L (transmembrane protein 59 like)	SID363998057	0.14	0.398	0.443
11	MT-ND4L (mitochondrially encoded NADH 4L dehydrogenase)	SID364004845	0.264	0.716	0.399
12	ITIH1 (inter-alpha-trypsin inhibitor heavy chain 1)	SID363993416	0.0713	0.18	0.295
13	CAPN1 (calpain 1)	SID363996112	0.133	0.236	0.216
14	OSTM1 (osteoclastogenesis associated transmembrane protein 1)	SID363998558	0.113	0.754	0.327
15	IGFBP6 (insulin like growth factor binding protein 6)	SID363993381	0.136	0.13	0.437
16	LAPTM5 (lysosomal protein transmembrane 5)	SID363997533	0.201	0.18	0.263
17	SLC1A7	SID363997457	0.11	0.799	0.278
18	BSDC1 (BSD domain containing 1)	SID364000733	0.122	0.501	0.243
19	OXGR1 (oxoglutarate receptor 1)	SID364004501	0.139	0.244	0.252
20	MAP3K9 (mitogen-activated protein kinase kinase kinase 9)	SID364004335	0.491	0.0484	0.594
21	CITED2 (Cbp/p300 interacting transactivator with ED-rich tail 2)	SID363996923	0.0246	0.0887	0.313
22	SLC6A9	SID363997687	0.0978	0.423	0.289
23	HIGD1B (HIG1 hypoxia inducible domain family member 1B)	SID364000106	0.0897	0.142	0.372
24	GRM7 (glutamate metabotropic receptor 7)	SID363992131	0.105	0.153	0.439
25	IFNA7 (interferon alpha 7)	SID364001978	0.135	0.0669	0.262
26	LHFPL2 (LHFPL tetraspan subfamily member 2)	SID363996659	0.116	0.189	0.358
27	MAPK4 (mitogen-activated protein kinase 4)	SID363993905	0.0643	0.236	0.221
28	CCDC198 (coiled-coil domain containing 198)	SID364000840	0.141	0.0966	0.362
29	MDC1 (mediator of DNA damage checkpoint 1)	SID363999005	0.0609	0.417	0.23
30	CDH22 (cadherin 22)	SID364002126	0.12	0.232	0.224
31	IGSF1 (immunoglobulin superfamily member 1)	SID363992812	0.0581	0.208	0.305
32	GFRA2 (GDNF family receptor alpha 2)	SID363992753	0.172	0.335	0.403
33	TPR (translocated promoter region, nuclear basket protein)	SID363994411	0.109	0.147	0.31
34	CNTFR (ciliary neurotrophic factor receptor)	SID363993056	0.139	0.133	0.246
35	DCN (decorin)	SID363993133	0.124	0.129	0.232
36	STX12 (syntaxin 12)	SID364004896	0.127	0.201	0.5
37	IFT46 (intraflagellar transport 46)	SID364001512	0.144	0.176	0.348
38	GNB5 (G protein subunit beta 5)	SID363997369	0.163	1.93	0.734
39	IFT140 (intraflagellar transport 140)	SID363999052	0.148	0.0559	0.282
40	USP8 (ubiquitin specific peptidase 8)	SID363996082	0.0828	0.114	0.253
41	IL17RD (interleukin 17 receptor D)	SID364000360	0.187	0.381	0.403
42	CDH19 (cadherin 19)	SID364002047	0.12	0.1	0.259
43	KLRC2 (killer cell lectin like receptor C2)	SID363993459	0.0644	0.0359	0.373
44	DCAF17 (DDB1 and CUL4 associated factor 17)	SID364003202	0.0944	0.218	0.332
45	FFAR4 (free fatty acid receptor 4)	SID364004942	0.121	0.136	0.322
46	BPTF (bromodomain PHD finger transcription factor)	SID363995441	0.173	0.121	0.323
47	ELOC (elongin C)	SID363996541	0.224	0.245	1.53
48	ACKR3 (atypical chemokine receptor 3)	SID364001600	0.112	0.24	0.39
49	NUP58 (nucleoporin 58)	SID363998598	0.0946	0.656	0.307
50	GPR174 (G protein-coupled receptor 174)	SID364004047	0.0814	0.558	0.414

Single entries from the list.
Result for DCAF17 (DDB1 and CUL4 associated factor 17) [SID364003202] in “BNIP3 mRNA, set 1”: 0.332
Value for CITED2 (Cbp/p300 interacting transactivator with ED-rich tail 2) [SID363996923] under “BNIP3L mRNA, set 1”: 0.0246
MAP3K9 (mitogen-activated protein kinase kinase kinase 9) [SID364004335], NDRG1 mRNA, set 1 = 0.0484
BSDC1 (BSD domain containing 1) [SID364000733], NDRG1 mRNA, set 1: 0.501
ITIH1 (inter-alpha-trypsin inhibitor heavy chain 1) [SID363993416], NDRG1 mRNA, set 1 → 0.18
Entry of NUP58 (nucleoporin 58) [SID363998598] in “BNIP3L mRNA, set 1”: 0.0946
